Test [1] deals with T1, Tespa1 (two-hybrid fusion) (mouse) (UniProt Q3U132).
T1 sequence: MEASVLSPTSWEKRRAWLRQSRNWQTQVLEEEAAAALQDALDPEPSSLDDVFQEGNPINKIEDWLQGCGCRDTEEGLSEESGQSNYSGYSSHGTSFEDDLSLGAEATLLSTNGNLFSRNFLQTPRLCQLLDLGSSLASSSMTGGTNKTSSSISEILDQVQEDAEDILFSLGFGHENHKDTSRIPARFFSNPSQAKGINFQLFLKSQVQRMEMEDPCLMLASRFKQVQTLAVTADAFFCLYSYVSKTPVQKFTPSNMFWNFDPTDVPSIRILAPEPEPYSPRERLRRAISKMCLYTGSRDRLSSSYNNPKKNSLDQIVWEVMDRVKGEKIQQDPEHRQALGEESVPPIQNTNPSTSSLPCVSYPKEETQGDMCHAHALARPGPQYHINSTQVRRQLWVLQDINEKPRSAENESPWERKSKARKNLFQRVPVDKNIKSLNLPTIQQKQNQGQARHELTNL
Kind of test: two-hybrid; 'a two-hybrid system'; kind not told.

The chains behind the UniProt entries cited, without tags or fusion partners. Residues count along the entry.
UniProt P11881, residues 1-610: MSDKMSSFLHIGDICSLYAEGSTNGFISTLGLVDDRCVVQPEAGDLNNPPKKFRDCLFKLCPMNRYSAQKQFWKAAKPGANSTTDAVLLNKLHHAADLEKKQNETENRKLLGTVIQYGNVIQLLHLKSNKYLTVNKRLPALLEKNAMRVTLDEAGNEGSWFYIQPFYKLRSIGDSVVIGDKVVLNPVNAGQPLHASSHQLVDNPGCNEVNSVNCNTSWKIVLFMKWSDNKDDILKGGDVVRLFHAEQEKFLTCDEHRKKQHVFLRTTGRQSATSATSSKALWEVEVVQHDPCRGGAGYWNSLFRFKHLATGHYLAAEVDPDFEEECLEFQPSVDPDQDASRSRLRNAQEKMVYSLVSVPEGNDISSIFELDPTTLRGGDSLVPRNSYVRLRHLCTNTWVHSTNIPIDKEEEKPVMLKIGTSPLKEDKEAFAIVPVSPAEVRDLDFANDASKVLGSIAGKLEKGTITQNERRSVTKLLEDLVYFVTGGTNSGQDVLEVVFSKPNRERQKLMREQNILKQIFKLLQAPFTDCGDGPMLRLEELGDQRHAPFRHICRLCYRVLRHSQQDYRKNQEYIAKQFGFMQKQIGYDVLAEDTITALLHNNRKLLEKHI

Test [2] concerns the target T2, Flag-tagged full-length Tespa1 (FL) (mouse) (UniProt Q3U132).
T2 sequence: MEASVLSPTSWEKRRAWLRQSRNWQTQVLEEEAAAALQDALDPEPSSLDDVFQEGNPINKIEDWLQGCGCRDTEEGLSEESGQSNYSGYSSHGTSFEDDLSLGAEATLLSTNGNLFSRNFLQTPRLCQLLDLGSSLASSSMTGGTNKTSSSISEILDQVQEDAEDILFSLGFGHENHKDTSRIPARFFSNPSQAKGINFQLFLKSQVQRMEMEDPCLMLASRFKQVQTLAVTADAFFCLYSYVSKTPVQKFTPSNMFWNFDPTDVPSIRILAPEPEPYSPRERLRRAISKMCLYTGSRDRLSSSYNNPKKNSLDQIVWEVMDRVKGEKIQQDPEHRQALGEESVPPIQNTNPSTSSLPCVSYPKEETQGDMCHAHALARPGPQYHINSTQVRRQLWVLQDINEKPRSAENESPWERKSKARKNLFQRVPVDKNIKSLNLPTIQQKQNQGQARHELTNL
Kind of test: co-IP; HEK293 cells co-transfected with Flag-tagged Tespa1 and HA-tagged PLC-γ1 or its mutants; NP-40 lysis buffer (50 mM Tris pH 7.4, 150 mM NaCl, 1% NP-40); anti-Flag beads 4 h at 4 °C; blots with anti-Flag and anti-HA.

Here are results for five molecules from PMC5472764.

These are yes or no findings as the source states them, for the method shown. For some assays here: In cells and extracts the contact can be indirect. Some binding calls cover weakened binding; strength is not graded here. Tags and fused reporters may be left off the sequences shown.

Regarding “IP3R1-N (two-hybrid fusion) (from UniProt P11881 1-610) (domain or fragment)”, the binding result in test [1] was “binds”.

B1: HA-tagged full-length PLC-γ1 (FL) (enzyme, UniProt P19174 1-1290)
chain: MAGAASPCANGCGPGAPSDAEVLHLCRSLEVGTVMTLFYSKKSQRPERKTFQVKLETRQITWSRGADKIEGAIDIREIKEIRPGKTSRDFDRYQEDPAFRPDQSHCFVILYGMEFRLKTLSLQATSEDEVNMWIKGLTWLMEDTLQAPTPLQIERWLRKQFYSVDRNREDRISAKDLKNMLSQVNYRVPNMRFLRERLTDLEQRSGDITYGQFAQLYRSLMYSAQKTMDLPFLEASTLRAGERPELCRVSLPEFQQFLLDYQGELWAVDRLQVQEFMLSFLRDPLREIEEPYFFLDEFVTFLFSKENSVWNSQLDAVCPDTMNNPLSHYWISSSHNTYLTGDQFSSESSLEAYARCLRMGCRCIELDCWDGPDGMPVIYHGHTLTTKIKFSDVLHTIKEHAFVASEYPVILSIEDHCSIAQQRNMAQYFKKVLGDTLLTKPVEISADGLPSPNQLKRKILIKHKKLAEGSAYEEVPTSMMYSENDISNSIKNGILYLEDPVNHEWYPHYFVLTSSKIYYSEETSSDQGNEDEEEPKEVSSSTELHSNEKWFHGKLGAGRDGRHIAERLLTEYCIETGAPDGSFLVRESETFVGDYTLSFWRNGKVQHCRIHSRQDAGTPKFFLTDNLVFDSLYDLITHYQQVPLRCNEFEMRLSEPVPQTNAHESKEWYHASLTRAQAEHMLMRVPRDGAFLVRKRNEPNSYAISFRAEGKIKHCRVQQEGQTVMLGNSEFDSLVDLISYYEKHPLYRKMKLRYPINEEALEKIGTAEPDYGALYEGRNPGFYVEANPMPTFKCAVKALFDYKAQREDELTFIKSAIIQNVEKQEGGWWRGDYGGKKQLWFPSNYVEEMVNPVALEPEREHLDENSPLGDLLRGVLDVPACQIAIRPEGKNNRLFVFSISMASVAHWSLDVAADSQEELQDWVKKIREVAQTADARLTEGKIMERRKKIALELSELVVYCRPVPFDEEKIGTERACYRDMSSFPETKAEKYVNKAKGKKFLQYNRLQLSRIYPKGQRLDSSNYDPLPMWICGSQLVALNFQTPDKPMQMNQALFMTGRHCGYVLQPSTMRDEAFDPFDKSSLRGLEPCAISIEVLGARHLPKNGRGIVCPFVEIEVAGAEYDSTKQKTEFVVDNGLNPVWPAKPFHFQISNPEFAFLRFVVYEEDMFSDQNFLAQATFPVKGLKTGYRAVPLKNNYSEDLELASLLIKIDIFPAKENGDLSPFSGTSLRERGSDASGQLFHGRAREGSFESRYQQPFEDFRISQEHLADHFDSRERRAPRRTRVNGDNRL
B1: the binding result in test [2] is “binds weakly”.

B2: PLC-γ1 E347K (enzyme, UniProt P19174 1-1290)
chain: MAGAASPCANGCGPGAPSDAEVLHLCRSLEVGTVMTLFYSKKSQRPERKTFQVKLETRQITWSRGADKIEGAIDIREIKEIRPGKTSRDFDRYQEDPAFRPDQSHCFVILYGMEFRLKTLSLQATSEDEVNMWIKGLTWLMEDTLQAPTPLQIERWLRKQFYSVDRNREDRISAKDLKNMLSQVNYRVPNMRFLRERLTDLEQRSGDITYGQFAQLYRSLMYSAQKTMDLPFLEASTLRAGERPELCRVSLPEFQQFLLDYQGELWAVDRLQVQEFMLSFLRDPLREIEEPYFFLDEFVTFLFSKENSVWNSQLDAVCPDTMNNPLSHYWISSSHNTYLTGDQFSSKSSLEAYARCLRMGCRCIELDCWDGPDGMPVIYHGHTLTTKIKFSDVLHTIKEHAFVASEYPVILSIEDHCSIAQQRNMAQYFKKVLGDTLLTKPVEISADGLPSPNQLKRKILIKHKKLAEGSAYEEVPTSMMYSENDISNSIKNGILYLEDPVNHEWYPHYFVLTSSKIYYSEETSSDQGNEDEEEPKEVSSSTELHSNEKWFHGKLGAGRDGRHIAERLLTEYCIETGAPDGSFLVRESETFVGDYTLSFWRNGKVQHCRIHSRQDAGTPKFFLTDNLVFDSLYDLITHYQQVPLRCNEFEMRLSEPVPQTNAHESKEWYHASLTRAQAEHMLMRVPRDGAFLVRKRNEPNSYAISFRAEGKIKHCRVQQEGQTVMLGNSEFDSLVDLISYYEKHPLYRKMKLRYPINEEALEKIGTAEPDYGALYEGRNPGFYVEANPMPTFKCAVKALFDYKAQREDELTFIKSAIIQNVEKQEGGWWRGDYGGKKQLWFPSNYVEEMVNPVALEPEREHLDENSPLGDLLRGVLDVPACQIAIRPEGKNNRLFVFSISMASVAHWSLDVAADSQEELQDWVKKIREVAQTADARLTEGKIMERRKKIALELSELVVYCRPVPFDEEKIGTERACYRDMSSFPETKAEKYVNKAKGKKFLQYNRLQLSRIYPKGQRLDSSNYDPLPMWICGSQLVALNFQTPDKPMQMNQALFMTGRHCGYVLQPSTMRDEAFDPFDKSSLRGLEPCAISIEVLGARHLPKNGRGIVCPFVEIEVAGAEYDSTKQKTEFVVDNGLNPVWPAKPFHFQISNPEFAFLRFVVYEEDMFSDQNFLAQATFPVKGLKTGYRAVPLKNNYSEDLELASLLIKIDIFPAKENGDLSPFSGTSLRERGSDASGQLFHGRAREGSFESRYQQPFEDFRISQEHLADHFDSRERRAPRRTRVNGDNRL
As to B2, the binding entry in test [2] is reported as “binds”.

B3: PLC-γ1 D1019K (enzyme, UniProt P19174 1-1290)
chain: MAGAASPCANGCGPGAPSDAEVLHLCRSLEVGTVMTLFYSKKSQRPERKTFQVKLETRQITWSRGADKIEGAIDIREIKEIRPGKTSRDFDRYQEDPAFRPDQSHCFVILYGMEFRLKTLSLQATSEDEVNMWIKGLTWLMEDTLQAPTPLQIERWLRKQFYSVDRNREDRISAKDLKNMLSQVNYRVPNMRFLRERLTDLEQRSGDITYGQFAQLYRSLMYSAQKTMDLPFLEASTLRAGERPELCRVSLPEFQQFLLDYQGELWAVDRLQVQEFMLSFLRDPLREIEEPYFFLDEFVTFLFSKENSVWNSQLDAVCPDTMNNPLSHYWISSSHNTYLTGDQFSSESSLEAYARCLRMGCRCIELDCWDGPDGMPVIYHGHTLTTKIKFSDVLHTIKEHAFVASEYPVILSIEDHCSIAQQRNMAQYFKKVLGDTLLTKPVEISADGLPSPNQLKRKILIKHKKLAEGSAYEEVPTSMMYSENDISNSIKNGILYLEDPVNHEWYPHYFVLTSSKIYYSEETSSDQGNEDEEEPKEVSSSTELHSNEKWFHGKLGAGRDGRHIAERLLTEYCIETGAPDGSFLVRESETFVGDYTLSFWRNGKVQHCRIHSRQDAGTPKFFLTDNLVFDSLYDLITHYQQVPLRCNEFEMRLSEPVPQTNAHESKEWYHASLTRAQAEHMLMRVPRDGAFLVRKRNEPNSYAISFRAEGKIKHCRVQQEGQTVMLGNSEFDSLVDLISYYEKHPLYRKMKLRYPINEEALEKIGTAEPDYGALYEGRNPGFYVEANPMPTFKCAVKALFDYKAQREDELTFIKSAIIQNVEKQEGGWWRGDYGGKKQLWFPSNYVEEMVNPVALEPEREHLDENSPLGDLLRGVLDVPACQIAIRPEGKNNRLFVFSISMASVAHWSLDVAADSQEELQDWVKKIREVAQTADARLTEGKIMERRKKIALELSELVVYCRPVPFDEEKIGTERACYRDMSSFPETKAEKYVNKAKGKKFLQYNRLQLSRIYPKGQRLKSSNYDPLPMWICGSQLVALNFQTPDKPMQMNQALFMTGRHCGYVLQPSTMRDEAFDPFDKSSLRGLEPCAISIEVLGARHLPKNGRGIVCPFVEIEVAGAEYDSTKQKTEFVVDNGLNPVWPAKPFHFQISNPEFAFLRFVVYEEDMFSDQNFLAQATFPVKGLKTGYRAVPLKNNYSEDLELASLLIKIDIFPAKENGDLSPFSGTSLRERGSDASGQLFHGRAREGSFESRYQQPFEDFRISQEHLADHFDSRERRAPRRTRVNGDNRL
With B3, the binding result in test [2] was “binds”.

B4: PLC-γ1 Y747/R748E (enzyme, UniProt P19174 1-1290)
chain: MAGAASPCANGCGPGAPSDAEVLHLCRSLEVGTVMTLFYSKKSQRPERKTFQVKLETRQITWSRGADKIEGAIDIREIKEIRPGKTSRDFDRYQEDPAFRPDQSHCFVILYGMEFRLKTLSLQATSEDEVNMWIKGLTWLMEDTLQAPTPLQIERWLRKQFYSVDRNREDRISAKDLKNMLSQVNYRVPNMRFLRERLTDLEQRSGDITYGQFAQLYRSLMYSAQKTMDLPFLEASTLRAGERPELCRVSLPEFQQFLLDYQGELWAVDRLQVQEFMLSFLRDPLREIEEPYFFLDEFVTFLFSKENSVWNSQLDAVCPDTMNNPLSHYWISSSHNTYLTGDQFSSESSLEAYARCLRMGCRCIELDCWDGPDGMPVIYHGHTLTTKIKFSDVLHTIKEHAFVASEYPVILSIEDHCSIAQQRNMAQYFKKVLGDTLLTKPVEISADGLPSPNQLKRKILIKHKKLAEGSAYEEVPTSMMYSENDISNSIKNGILYLEDPVNHEWYPHYFVLTSSKIYYSEETSSDQGNEDEEEPKEVSSSTELHSNEKWFHGKLGAGRDGRHIAERLLTEYCIETGAPDGSFLVRESETFVGDYTLSFWRNGKVQHCRIHSRQDAGTPKFFLTDNLVFDSLYDLITHYQQVPLRCNEFEMRLSEPVPQTNAHESKEWYHASLTRAQAEHMLMRVPRDGAFLVRKRNEPNSYAISFRAEGKIKHCRVQQEGQTVMLGNSEFDSLVDLISYYEKHPLEEKMKLRYPINEEALEKIGTAEPDYGALYEGRNPGFYVEANPMPTFKCAVKALFDYKAQREDELTFIKSAIIQNVEKQEGGWWRGDYGGKKQLWFPSNYVEEMVNPVALEPEREHLDENSPLGDLLRGVLDVPACQIAIRPEGKNNRLFVFSISMASVAHWSLDVAADSQEELQDWVKKIREVAQTADARLTEGKIMERRKKIALELSELVVYCRPVPFDEEKIGTERACYRDMSSFPETKAEKYVNKAKGKKFLQYNRLQLSRIYPKGQRLDSSNYDPLPMWICGSQLVALNFQTPDKPMQMNQALFMTGRHCGYVLQPSTMRDEAFDPFDKSSLRGLEPCAISIEVLGARHLPKNGRGIVCPFVEIEVAGAEYDSTKQKTEFVVDNGLNPVWPAKPFHFQISNPEFAFLRFVVYEEDMFSDQNFLAQATFPVKGLKTGYRAVPLKNNYSEDLELASLLIKIDIFPAKENGDLSPFSGTSLRERGSDASGQLFHGRAREGSFESRYQQPFEDFRISQEHLADHFDSRERRAPRRTRVNGDNRL
For B4, the binding result in test [2] is “binds”.
